Test results: article PMC7687128, “Extracellular loops matter – subcellular location and function of the lysine transporter Lyp1 from Saccharomyces cerevisiae” (The Febs Journal, 2020)

Biological target: T1, Lyp1 (Lyp1-YPet) (Saccharomyces cerevisiae, UniProt P32487)
T1 construct: full-length, YPet fluorescent protein fusion, plasmid-expressed in S. cerevisiae, assayed in whole cells
T1 sequence (P32487 1-611): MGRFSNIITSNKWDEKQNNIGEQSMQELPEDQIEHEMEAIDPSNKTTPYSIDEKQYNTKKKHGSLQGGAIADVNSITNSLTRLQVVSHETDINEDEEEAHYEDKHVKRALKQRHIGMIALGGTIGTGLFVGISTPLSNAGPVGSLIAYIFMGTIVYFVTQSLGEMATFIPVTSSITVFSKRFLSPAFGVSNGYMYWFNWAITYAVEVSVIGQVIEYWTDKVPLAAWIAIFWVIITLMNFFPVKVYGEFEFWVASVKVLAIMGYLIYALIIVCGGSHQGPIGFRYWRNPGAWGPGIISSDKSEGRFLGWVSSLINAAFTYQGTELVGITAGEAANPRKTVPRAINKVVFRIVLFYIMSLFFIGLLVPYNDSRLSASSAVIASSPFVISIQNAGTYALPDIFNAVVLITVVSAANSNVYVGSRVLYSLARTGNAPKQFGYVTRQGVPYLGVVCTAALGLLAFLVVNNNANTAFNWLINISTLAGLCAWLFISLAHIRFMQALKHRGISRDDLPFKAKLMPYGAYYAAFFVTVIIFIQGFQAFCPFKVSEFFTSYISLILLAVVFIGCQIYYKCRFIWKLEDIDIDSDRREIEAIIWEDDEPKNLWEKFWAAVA
Assay: competition with […]-lysine uptake in S. cerevisiae cells
Type: cell-based

NCCC[C@H](N)C(=O)O [ornithine]
% reduction of lysine transport at 100 mM: > 80%
